Results from publication PMC9241938.

Legend:
[1] = molecular target: T1, cyAbrB2 (Synechocystis sp. PCC 6803) (UniProt Q55432); assay: EMSA; settings: value only in figure, EMSA: 12 mM HEPES, 4 mM Tris, 12 mM KCl, 1 mM EDTA, 1 mM EGTA, 12% glycerol, 1 ug poly(dIdC), 3% agarose, 0.5x TBE, pH 8.2 or 5 tested, recombinant protein, residues 1-129, protein details: N-terminal 6xHis, label: Cy3 on 5' end of reverse strand
T1 sequence (looked up): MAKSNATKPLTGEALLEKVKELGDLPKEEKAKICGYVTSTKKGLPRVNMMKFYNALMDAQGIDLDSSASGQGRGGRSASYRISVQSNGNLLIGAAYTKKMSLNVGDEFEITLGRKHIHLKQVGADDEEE

[2] = molecular target: T2, HU (Synechocystis sp. PCC 6803) (UniProt P73418); assay: pull-down/MS; settings: protein in an extract, label: biotin on 5' end of reverse strand
T2 sequence (looked up, limits assumed): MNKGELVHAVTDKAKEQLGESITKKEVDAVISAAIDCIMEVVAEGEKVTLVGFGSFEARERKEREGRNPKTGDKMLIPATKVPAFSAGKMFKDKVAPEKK

[3] = molecular target: T3, cyAbrB1 (native) (Synechocystis sp. PCC 6803) (UniProt P74426); assay: pull-down/MS; settings: enriched versus 5'UTR; protein in an extract; label: biotin on 5' end of reverse strand
T3 sequence (looked up, limits assumed): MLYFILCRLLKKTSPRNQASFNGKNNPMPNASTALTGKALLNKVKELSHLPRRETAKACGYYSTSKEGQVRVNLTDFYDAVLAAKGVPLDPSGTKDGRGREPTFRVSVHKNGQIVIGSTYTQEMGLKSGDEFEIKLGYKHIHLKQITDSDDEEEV

[4] = molecular target: T4, cyAbrB2 (native) (Synechocystis sp. PCC 6803) (UniProt Q55432); assay: pull-down/MS; settings: enriched versus 5'UTR; protein in an extract; label: biotin on 5' end of reverse strand
T4 sequence (looked up, limits assumed): T1 sequence (looked up)

TTTGCCCAATTTGACAATATATTAAGAAATCCTCATCTAACCTGTTTTTCATTGGATAATTAAAACAAGAGGAAAGATCAGGGGGCAGGAAAATAAATTACCTAATACCTAGTCCTGGTTGATAAAACCAGAGGCAGAAAACCTCCCCGTTTTCTCAAACTTGCCCAAAAGACAACTGTTGAGTTTCCCCCATTGGGACGGAGGTTATG (double strand) [PatpT66-5'UTR]
binding result [1]: binds

TTTGCCCAATTTGACAATATATTAAGAAATCCTCATCTAACCTGTTTTTCATTGGATAATTAAAACAAGAGGAAAGATCAGGGGGCAGGAAAATAAATTACCTAATACCTAGTCCTGGTTGATAAAACCAGAGGCAGAAAACCTCCCCGTTTTCTCAAACTTGCCCAAAAGACAACTGTTGAGTTTCCCCCATTGGGACGGAGGTTATG (double strand) [biotinylated PatpT66-5'UTR]
binding result ([2]; less enriched than on 5'UTR): binds more weakly | binding result [3]: binds | binding result [4]: binds

AAGAGGAAAGATCAGGGGGCAGGAAAATAAATTACCTAATACCTAGTCCTGGTTGATAAAACCAGAGGCAGAAAACCTCCCCGTTTTCTCAAACTTGCCCAAAAGACAACTGTTGAGTTTCCCCCATTGGGACGGAGGTTATG (double strand) [biotinylated atpT 5'UTR]
binding result ([2]; enriched versus PatpT66-5'UTR): binds

AAGAGGAAAGATCAGGGGGCAGGAAAATAAATTACCTAATACCTAGTCCTGGTTGATAAAACCAGAGGCAGAAAACCTCCCCGTTTTCTCAAACTTGCCCAAAAGACAACTGTTGAGTTTCCCCCATTGGGACGGAGGTTATG (double strand) [atpT 5'UTR]
binding result ([1]; shift only at high protein (2.2 ug)): binds more weakly

For part of these data: A weaker result is weaker than the reference pair of the same experiment. Protein sequences can lack the tags named with them. For part of these data: Construct, isoform or probe ends are uncertain for at least one entry. For part of these data: Results from cells or extracts need not show a direct contact. For part of these data: At least one verdict rests on a figure or table, not on a statement of the authors.
